Earlier results, collected in article PMC3383642 (Nature, 2012).

Conditions: human plasma, ref Thompson Reuters Integrity, cited from earlier work

Question: Which “AUC [μM*h] (median)” value (median of reported values) does the source give for `CN(C)CCOC(c1ccccc1)c1ccccc1` [Diphenhydramine] here?
Answer: 3.00 µM·h

Question: And the “AUC” value (range of reported values)?
Answer: 2.57 to 3.42 µM·h

Question: And the Cmax (range of reported values)?
Answer: 260 nM
